The target in this assay is T1, FLAG and HA-tagged RNF219 (FHA-RNF219), stably expressed in HeLa S3 cells (human) (UniProt Q5W0B1).
T1 sequence: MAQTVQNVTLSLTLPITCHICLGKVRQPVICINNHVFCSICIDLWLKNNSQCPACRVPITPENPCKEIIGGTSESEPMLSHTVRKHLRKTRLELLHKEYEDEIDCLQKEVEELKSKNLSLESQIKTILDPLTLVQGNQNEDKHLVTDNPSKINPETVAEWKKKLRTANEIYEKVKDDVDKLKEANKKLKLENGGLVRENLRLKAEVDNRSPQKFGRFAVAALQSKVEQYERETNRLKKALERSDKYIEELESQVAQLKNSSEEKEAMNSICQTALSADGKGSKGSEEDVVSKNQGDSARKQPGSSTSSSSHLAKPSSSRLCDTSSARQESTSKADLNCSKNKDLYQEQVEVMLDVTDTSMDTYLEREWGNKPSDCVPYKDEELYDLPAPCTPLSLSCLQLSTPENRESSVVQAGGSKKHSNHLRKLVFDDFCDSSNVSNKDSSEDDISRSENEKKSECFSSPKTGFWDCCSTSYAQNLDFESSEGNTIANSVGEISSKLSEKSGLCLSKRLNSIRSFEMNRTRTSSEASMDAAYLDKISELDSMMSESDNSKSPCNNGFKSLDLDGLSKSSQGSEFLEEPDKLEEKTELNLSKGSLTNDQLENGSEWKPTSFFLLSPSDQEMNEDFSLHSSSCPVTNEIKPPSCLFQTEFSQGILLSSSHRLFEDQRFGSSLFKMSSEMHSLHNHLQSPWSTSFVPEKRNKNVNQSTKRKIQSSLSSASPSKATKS
Put plainly: affinity purification with mass spectrometry; two-step FLAG and HA affinity chromatography from Dignam S100 cytoplasmic extracts of HeLa S3 cells stably expressing FHA-RNF219; bands of SDS-PAGE analysed by tandem mass spectrometry; non-transduced HeLa S3 as mock.

This note sets out measurements from publication PMC9166816.

No constants are given. Whether binding was seen depends on the method and setting. Binding seen in cells or lysates may run through a third protein. Here binding means that the protein was enriched with, or labelled near, the bait; the list need not be complete. A no says only that the protein was not detected with the bait. Tags and fused reporters may be left off the sequences shown.

B1: CNOT4 (protein, UniProt O95628 1-575)
chain: MSRSPDAKEDPVECPLCMEPLEIDDINFFPCTCGYQICRFCWHRIRTDENGLCPACRKPYPEDPAVYKPLSQEELQRIKNEKKQKQNERKQKISENRKHLASVRVVQKNLVFVVGLSQRLADPEVLKRPEYFGKFGKIHKVVINNSTSYAGSQGPSASAYVTYIRSEDALRAIQCVNNVVVDGRTLKASLGTTKYCSYFLKNMQCPKPDCMYLHELGDEAASFTKEEMQAGKHQEYEQKLLQELYKLNPNFLQLSTGSVDKNKNKVTPLQRYDTPIDKPSDSLSIGNGDNSQQISNSDTPSPPPGLSKSNPVIPISSSNHSARSPFEGAVTESQSLFSDNFRHPNPIPSGLPPFPSSPQTSSDWPTAPEPQSLFTSETIPVSSSTDWQAAFGFGSSKQPEDDLGFDPFDVTRKALADLIEKELSVQDQPSLSPTSLQNSSSHTTTAKGPGSGFLHPAAATNANSLNSTFSVLPQRFPQFQQHRAVYNSFSFPGQAARYPWMAFPRNSIMHLNHTANPTSNSNFLDLNLPPQHNTGLGGIPVAGEEEVKVSTMPLSTSSHSLQQGQQPTSLHTTVA
Regarding B1, the binding result was “no binding”.
